# Measured values: PubChem BioAssay AID651640 (Broad Institute, 2012)
# In all, about 350,000 compounds went through this assay and about 6,000 (1.7%) were called active. Inconclusive results, whose numbers are uncertain, are shown with a selection of clear calls. Rule as the data show it: active = CPE inhibition above about 20% (passing the limit was not always enough); inconclusive = no clear call, values can overlap the other calls; tested in BHK-21 cells.
# Experiment: protection of cells from dengue 2 killing – plate reader, single concentration, primary screen (AID 651640);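 also: 0% = median of neutral control wells and 100% = median of positive control wells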
# Conditions: DENV2-infected cells, cytopathic effect rescue, at 9.99 µM, active compounds read high
row,Compound,CPE inhibition
1,O=C(NCc1ccccc1CN1CCCC1)C1CCN(C(=O)c2ccc(F)cc2)CC1,inconclusive: 28.9%
2,COc1ccc(NC(=O)N(C)C[C@@H]2Oc3ccc(NC(=O)c4ccncc4)cc3CC(=O)N([C@@H](C)CO)C[C@@H]2C)cc1,active: 28.4%
3,C[C@H](CO)N1C[C@H](C)[C@H](CN(C)C(=O)Nc2ccccc2)Oc2ccc(NC(=O)CCCCCC(=O)Nc3ccccc3N)cc2C1=O,active: 52.2%
4,CCCCn1nnnc1C1(C)CCC(=O)N1CCOc1ccccc1 (stereo not drawn),active: 65.5%
5,O=C(N[C@@H]1CC[C@@H](CCNS(=O)(=O)c2cccc(Cl)c2)O[C@H]1CO)c1ccccc1,active: 76.9%
6,CN(C)C(=O)C[C@H]1CC[C@H]2[C@@H](COC[C@@H](O)CN2CC2CCCC2)O1,inactive: 8.15%
7,Cc1ccc(N2C(=O)N3[C@H](c4ccc(Cl)cc4)[C@@H]4C(=O)N(C5CCCCC5)C(=O)[C@@H]4[C@]3(Cc3ccccc3)C2=O)cc1,inconclusive: 20.4%
8,CC(C)(C)NC(=O)CSc1nc(-c2ccccc2)cc(=O)[nH]1,inconclusive: 39%
9,O=C(N/N=C/c1ccc([N+](=O)[O-])o1)c1cc2ccccc2o1,inconclusive: 21.6%
10,COC(=O)c1ccc2nc(-c3cccc(Cl)c3)c(CC3CCCCC3)n2c1,inconclusive: 48.6%
11,CC(C)CCNC(=O)C1CC(c2ccccc2C(F)(F)F)=NO1 (stereo not drawn),active: 35.3%
12,C[C@@H]1CN([C@@H](C)CO)C(=O)c2cc(NC(=O)Nc3ccc(C(F)(F)F)cc3)ccc2O[C@@H]1CN(C)C(=O)NC1CCCCC1,active: 101%
13,Cc1cc(C)c(S(C)(=O)=O)c(=O)[nH]1,inconclusive: 67.6%
14,C[C@H](O)C#Cc1cnc2c(c1)C(=O)N([C@@H](C)CO)C[C@@H](C)[C@@H](CN(C)Cc1cccc(F)c1)O2,inconclusive: 24.1%
15,O=C(C#Cc1ccccc1)Nc1ccccc1F,inactive: 14%
16,O=C(NCc1cccnc1)C1CC(c2cccc(Br)c2)=NO1 (stereo not drawn),inactive: -3.79%
17,COC(=O)C1=C(C)N(C)C(=NCC2CC2)NC1c1cccc(Cl)c1 (stereo not drawn),inconclusive: 21.9%
18,CN1CCN(C(=O)C[C@H]2CC[C@H]3[C@@H](COc4ccc(NC(=O)c5cccs5)cc4C(=O)N3C)O2)CC1,inactive: -11.8%
19,Cc1noc(C)c1NC(=O)N(C)C[C@H]1Oc2c(NC(=O)Nc3ccccc3)cccc2C(=O)N([C@H](C)CO)C[C@@H]1C,inconclusive: 48.2%
20,C[C@@H]1CN([C@H](C)CO)C(=O)CCCn2cc(nn2)CO[C@H]1CN(C)S(=O)(=O)c1cccc(C#N)c1,inconclusive: 32%
21,CC(C)C1CC(CCNCc2ccc(N(C)C)cc2)(c2ccccc2)CCO1 (stereo not drawn),inactive: 10.2%
22,Cc1ccc(OCc2ccccc2C)c([N+](=O)[O-])n1,inconclusive: 37.6%
23,Cc1noc(C)c1NC(=O)Nc1ccc2c(c1)C(=O)N([C@@H](C)CO)C[C@H](C)[C@@H](CN(C)Cc1ccc(Cl)c(Cl)c1)OCCCC[C@H](C)O2,active: 26.6%

# 6 successive compounds from above, for reference:
row,Compound,CPE inhibition
6,CN(C)C(=O)C[C@H]1CC[C@H]2[C@@H](COC[C@@H](O)CN2CC2CCCC2)O1,inactive: 8.15%
7,Cc1ccc(N2C(=O)N3[C@H](c4ccc(Cl)cc4)[C@@H]4C(=O)N(C5CCCCC5)C(=O)[C@@H]4[C@]3(Cc3ccccc3)C2=O)cc1,inconclusive: 20.4%
8,CC(C)(C)NC(=O)CSc1nc(-c2ccccc2)cc(=O)[nH]1,inconclusive: 39%
9,O=C(N/N=C/c1ccc([N+](=O)[O-])o1)c1cc2ccccc2o1,inconclusive: 21.6%
10,COC(=O)c1ccc2nc(-c3cccc(Cl)c3)c(CC3CCCCC3)n2c1,inconclusive: 48.6%
11,CC(C)CCNC(=O)C1CC(c2ccccc2C(F)(F)F)=NO1 (stereo not drawn),active: 35.3%

# (next part)

row,Compound,CPE inhibition
1,Cc1cccc(OCC(=O)Nc2ccc(S(=O)(=O)Nc3onc(C)c3C)cc2)c1C,inconclusive: 33.7%
2,CC(=O)N1[C@H](CO)[C@@H](c2ccc(C3=CCCCC3)cc2)[C@@H]1CNC(=O)CN(C)C,active: 21.7%
3,COc1ccc(-c2ccc(OC)c([C@H]3[C@@H]4C=CCC[C@@]4(C)C(=O)N3Cc3ccccc3)c2)cc1OC,inconclusive: 44.3%
4,C[C@@H]1CN([C@@H](C)CO)C(=O)c2cc(NC(=O)CCCN(C)C)ccc2O[C@@H]1CN(C)Cc1ccc(C(F)(F)F)cc1,inactive: -4.21%
5,CC(C)CC#Cc1ccc2c(c1)O[C@H](CN(C)C(=O)C1CCC1)[C@@H](C)CN([C@H](C)CO)S2(=O)=O,inconclusive: 29.9%
6,C[C@@H]1CN([C@@H](C)CO)C(=O)c2cc(-c3ccc(C#N)cc3)cnc2O[C@@H]1CN(C)C(=O)Nc1ccc(C(F)(F)F)cc1,inconclusive: 33.8%
7,CC(=O)c1ccc(S(=O)(=O)NCC2CCN(C(=O)C(=O)c3cc4ccccc4o3)CC2)cc1,inconclusive: 27.3%
8,COc1ccc(C(=O)N2C[C@H]3[C@@H](c4ccccc42)[C@@H](CO)N3Cc2ccccc2Cl)cc1,inconclusive: 103%
9,Cc1ccc(NC(=S)NC2CCCCC2)cc1S(=O)(=O)N(C)C,inconclusive: 43%
10,C[C@H]1CN([C@@H](C)CO)S(=O)(=O)c2ccc(/C=C/c3ccccc3)cc2O[C@H]1CN(C)C(=O)Nc1ccc(F)cc1,inactive: -4.12%
11,O=C(C[C@@H]1CC[C@H](NC(=O)c2cccc(F)c2)[C@@H](CO)O1)NCc1ccccc1,inactive: -2.23%
12,CC(=O)N(C)C[C@H]1Oc2cc(C#CC(C)C)ccc2S(=O)(=O)N([C@H](C)CO)C[C@H]1C,inactive: 6.3%
13,Cc1ccc(NC(=O)COC(=O)CCCC2=NS(=O)(=O)c3ccccc3N2)cc1C,inconclusive: 20.9%
14,CO[C@@H]1CN(C)C(=O)c2cc(NC(=O)c3ccccc3F)ccc2OC[C@H](C)N(C)C[C@H]1C,inconclusive: 24.3%
15,C[C@@H]1CN([C@H](C)CO)C(=O)c2cccc(NC(=O)c3ccc(-c4nccs4)cc3)c2O[C@@H]1CN(C)Cc1ccc(Cl)c(Cl)c1,inconclusive: 23.2%
16,COc1ccccc1CC(=O)N1CCN(S(=O)(=O)c2ccccc2)CC1,inconclusive: 27%
17,C[C@@H]1CN([C@H](C)CO)S(=O)(=O)c2ccc(-c3cccc(F)c3)cc2O[C@H]1CN(C)C,inactive: 1.16%
18,C[C@@H]1CN([C@@H](C)CO)C(=O)c2cc(C3=CCCCC3)cnc2O[C@@H]1CN(C)C(=O)Cc1ccncc1,inconclusive: 34.5%
19,COc1ccc(C(CNC(=O)c2ccc(NS(=O)(=O)c3ccc(F)cc3)cc2)N2CCOCC2)cc1 (stereo not drawn),inconclusive: 33.6%
20,C[C@@H]1CN([C@H](C)CO)C(=O)c2cccc(NC(=O)C3CCCCC3)c2O[C@H]1CN(C)Cc1ccc(C(=O)Nc2ccccc2N)cc1,inactive: -6.84%
21,NS(=O)(=O)c1cccc(NC(=O)c2cccc(S(=O)(=O)N3CCCCCC3)c2)c1,inconclusive: 26.3%
22,COc1ccc([C@@H]2CC=C(C(=O)O)[C@H](c3ccccc3F)N2S(=O)(=O)c2ccc(C)cc2)cc1OC,active: 35.6%
23,C[C@H](CO)N1C[C@H](C)[C@H](CN(C)C(=O)CC2CC2)Oc2cc(-c3cncnc3)ccc2S1(=O)=O,inactive: -7.57%

row,Compound,CPE inhibition
1,O=C(Nc1nc2c(F)cc(F)cc2s1)C1CCN(C(=O)c2ccc(F)cc2)CC1,inconclusive: 62.1%
2,COc1ccc2c3c(n(C)c2c1)[C@H](CO)N(S(=O)(=O)c1ccc(C)cc1)CC31CCN(C)CC1,inactive: -0.696%
3,CC(Sc1nnc(-c2cccnc2)n1-c1ccccc1F)C(=O)N1CCCc2ccccc21 (stereo not drawn),inconclusive: 28.3%
4,CCc1ccc(-n2c(=S)sc3c(=O)n(-c4ccccc4C)c(SCC(=O)O)nc32)cc1,inactive: 2.84%
5,C[C@@H]1CCCCO[C@@H](CN(C)Cc2ccncc2)[C@@H](C)CN([C@H](C)CO)C(=O)c2cc(NC(=O)Nc3ccc(F)cc3)ccc2O1,inconclusive: 56.4%
6,Cc1ccc2c(c1)N(CCCC(=O)NCc1ccc3c(c1)OCO3)C(=O)CO2,active: 91.7%
7,CCOC(=O)c1cnc2c(ccc3ccccc32)c1NCCCN(C)C,inactive: 0.66%
8,COc1ccc(CN(C)C[C@@H]2Oc3ccc(NC(=O)Nc4cccc5ccccc45)cc3C(=O)N([C@H](C)CO)C[C@@H]2C)cc1,inconclusive: 25.3%
9,C[C@@H]1CN([C@@H](C)CO)C(=O)c2cc(NC(=O)NC3CCCCC3)ccc2O[C@H]1CN(C)S(=O)(=O)c1ccc(Cl)cc1,inactive: 0.899%
10,C[C@@H]1CN([C@@H](C)CO)C(=O)c2cc(NS(=O)(=O)c3cccs3)ccc2O[C@H]1CN(C)Cc1ccc(-c2ccccc2)cc1,inactive: -1.57%
11,Cc1ccccc1NC(=O)c1ccc(S(=O)(=O)N(C)C)cc1,active: 50.9%
12,CC(=O)NC(CC(=O)OCC(=O)N1CCN(S(=O)(=O)c2ccc(C)cc2C)CC1)c1ccccc1 (stereo not drawn),inconclusive: 52.5%
13,CCc1cc(=O)oc2c3c(cc(OCC(=O)NCc4cccnc4)c12)OC(C)(C)CC3,inconclusive: 37.7%
14,O=C(c1cc2c(c(-c3cccc(-c4ccc(F)cc4)c3)n1)[C@H](CCO)N(C(=O)c1ccc3c(c1)OCO3)C2)N1CCOCC1,inconclusive: 40.7%
15,O=C(C[C@H]1C=C[C@@H](NC(=O)Nc2ccccc2F)[C@@H](CO)O1)NCc1ccccc1,inconclusive: 30.4%
16,Cc1cccc(NC(=O)COc2ccc(-c3nn(C)c(=O)c4ccccc34)cc2)c1,inconclusive: 26.3%
17,NC(=O)CC[C@@H]1NC(=O)[C@H](CO)NC(=O)c2cc([N+](=O)[O-])cc(I)c2NCC[C@@H](C(N)=O)NC1=O,inconclusive: 41.8%
18,COc1c(Br)cc([N+](=O)[O-])c(OC)c1C(=O)NC(=O)Nc1cc(Cl)cc(Cl)c1,inconclusive: 25.9%
19,CCS(=O)(=O)c1ccc(O)c(NC(=O)Nc2ccc(C(C)(C)C)cc2)c1,inconclusive: 34.2%
20,C[C@H]1CN([C@@H](C)CO)C(=O)c2cc(NC(=O)Cc3cn(C)c4ccccc34)ccc2O[C@@H]1CN(C)Cc1ccncc1,inconclusive: 20.6%
21,O=C(COc1ccccc1Cl)N1CCN(c2ccccn2)CC1,inconclusive: 34%
22,CO[C@@H]1CN(C)C(=O)c2ccc(NS(=O)(=O)c3cccc(F)c3)cc2OC[C@@H](C)NC[C@@H]1C,active: 71.2%
